This assay deals with T1, ADAP (adhesion and degranulation-promoting adapter protein), endogenous in iBMMs (mouse (endogenous in iBMMs)) (UniProt O35601).
T1 sequence: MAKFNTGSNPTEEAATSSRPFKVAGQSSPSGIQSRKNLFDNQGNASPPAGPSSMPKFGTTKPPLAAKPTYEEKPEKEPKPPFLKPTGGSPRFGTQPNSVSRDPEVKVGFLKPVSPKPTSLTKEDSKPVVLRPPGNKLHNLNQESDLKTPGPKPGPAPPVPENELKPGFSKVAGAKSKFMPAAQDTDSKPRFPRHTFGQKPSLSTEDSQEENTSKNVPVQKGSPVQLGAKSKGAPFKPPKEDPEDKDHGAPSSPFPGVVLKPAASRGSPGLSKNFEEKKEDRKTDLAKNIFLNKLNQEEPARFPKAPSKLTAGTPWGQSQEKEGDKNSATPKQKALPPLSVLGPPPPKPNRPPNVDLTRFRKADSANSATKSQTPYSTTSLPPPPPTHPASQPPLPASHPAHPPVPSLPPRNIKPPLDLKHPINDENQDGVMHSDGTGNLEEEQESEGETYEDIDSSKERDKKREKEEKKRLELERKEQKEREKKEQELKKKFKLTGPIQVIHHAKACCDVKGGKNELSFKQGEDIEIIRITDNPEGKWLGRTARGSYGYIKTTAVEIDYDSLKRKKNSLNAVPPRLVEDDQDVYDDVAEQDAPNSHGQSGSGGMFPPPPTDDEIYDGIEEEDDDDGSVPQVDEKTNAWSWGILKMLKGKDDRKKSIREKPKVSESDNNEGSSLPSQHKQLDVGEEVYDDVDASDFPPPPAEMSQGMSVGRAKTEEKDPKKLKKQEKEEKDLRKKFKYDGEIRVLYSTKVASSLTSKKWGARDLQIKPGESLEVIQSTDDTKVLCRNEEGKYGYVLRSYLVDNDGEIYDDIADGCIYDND
Put plainly: affinity purification with mass spectrometry; anti-ADAP immunoprecipitate from sucrose-gradient fractions 11-12 of iBMMs, eluted with 8 M urea, trypsin, LC-MS/MS (LTQ Orbitrap Elite).

Results are given in words; binding and its absence hold for the method and conditions named. Binding seen in cells or lysates may run through a third protein. A yes stands for co-enrichment or nearness to the bait. Other partners may have been found.

B1: RIG-I (retinoic acid-inducible gene I), endogenous in iBMMs (protein, UniProt Q6Q899 1-926)
chain: MTAEQRQNLQAFRDYIKKILDPTYILSYMSSWLEDEEVQYIQAEKNNKGPMEAASLFLQYLLKLQSEGWFQAFLDALYHAGYCGLCEAIESWDFQKIEKLEEHRLLLRRLEPEFKATVDPNDILSELSECLINQECEEIRQIRDTKGRMAGAEKMAECLIRSDKENWPKVLQLALEKDNSKFSELWIVDKGFKRAESKADEDDGAEASSIQIFIQEEPECQNLSQNPGPPSEASSNNLHSPLKPRNYQLELALPAKKGKNTIICAPTGCGKTFVSLLICEHHLKKFPCGQKGKVVFFANQIPVYEQQATVFSRYFERLGYNIASISGATSDSVSVQHIIEDNDIIILTPQILVNNLNNGAIPSLSVFTLMIFDECHNTSKNHPYNQIMFRYLDHKLGESRDPLPQVVGLTASVGVGDAKTAEEAMQHICKLCAALDASVIATVRDNVAELEQVVYKPQKISRKVASRTSNTFKCIISQLMKETEKLAKDVSEELGKLFQIQNREFGTQKYEQWIVGVHKACSVFQMADKEEESRVCKALFLYTSHLRKYNDALIISEDAQMTDALNYLKAFFHDVREAAFDETERELTRRFEEKLEELEKVSRDPSNENPKLRDLYLVLQEEYHLKPETKTILFVKTRALVDALKKWIEENPALSFLKPGILTGRGRTNRATGMTLPAQKCVLEAFRASGDNNILIATSVADEGIDIAECNLVILYEYVGNVIKMIQTRGRGRARDSKCFLLTSSADVIEKEKANMIKEKIMNESILRLQTWDEMKFGKTVHRIQVNEKLLRDSQHKPQPVPDKENKKLLCGKCKNFACYTADIRVVETSHYTVLGDAFKERFVCKPHPKPKIYDNFEKKAKIFCAKQNCSHDWGIFVRYKTFEIPVIKIESFVVEDIVSGVQNRHSKWKDFHFERIQFDPAEMSV
As for B1, the binding entry is reported as “binds”.

The values above are taken from paper PMC11111093.
